In experiment [1] the target is T1, hemagglutinin-tagged CTCF (UniProt P49711).
T1 sequence: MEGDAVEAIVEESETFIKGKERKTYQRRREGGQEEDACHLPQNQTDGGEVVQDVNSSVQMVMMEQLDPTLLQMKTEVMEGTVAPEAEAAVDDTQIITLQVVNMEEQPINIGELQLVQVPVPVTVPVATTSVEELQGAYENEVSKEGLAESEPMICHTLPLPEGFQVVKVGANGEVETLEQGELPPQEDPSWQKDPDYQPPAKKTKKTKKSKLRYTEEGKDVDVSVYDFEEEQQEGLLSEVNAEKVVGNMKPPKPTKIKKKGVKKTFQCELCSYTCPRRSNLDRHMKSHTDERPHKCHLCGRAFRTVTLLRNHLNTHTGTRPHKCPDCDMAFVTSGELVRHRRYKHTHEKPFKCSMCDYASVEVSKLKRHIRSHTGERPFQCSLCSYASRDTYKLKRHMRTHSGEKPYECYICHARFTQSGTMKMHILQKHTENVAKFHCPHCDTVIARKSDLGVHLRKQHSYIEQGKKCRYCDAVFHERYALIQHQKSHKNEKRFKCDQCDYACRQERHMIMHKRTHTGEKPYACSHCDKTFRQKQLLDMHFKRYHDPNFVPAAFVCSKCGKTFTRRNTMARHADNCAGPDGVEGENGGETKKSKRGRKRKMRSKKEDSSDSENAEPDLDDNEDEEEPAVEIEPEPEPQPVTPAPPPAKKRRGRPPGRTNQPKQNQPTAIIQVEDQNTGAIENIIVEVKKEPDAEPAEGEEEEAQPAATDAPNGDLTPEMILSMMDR
The experiment can be described thus: co-IP; HA pull-down on anti-HA magnetic beads from stable HSF1-knockdown HEK 293T cells transfected with HA-CTCF and WT or R71A HSF1, control and heat shock; immunoblot with anti-HSF1.

Protein sequences, listed by entry. Tags and fused reporters are not part of them. Lines headed by an entry give the natural chain unless they say otherwise; changes in a name come on top.
UniProt Q00613: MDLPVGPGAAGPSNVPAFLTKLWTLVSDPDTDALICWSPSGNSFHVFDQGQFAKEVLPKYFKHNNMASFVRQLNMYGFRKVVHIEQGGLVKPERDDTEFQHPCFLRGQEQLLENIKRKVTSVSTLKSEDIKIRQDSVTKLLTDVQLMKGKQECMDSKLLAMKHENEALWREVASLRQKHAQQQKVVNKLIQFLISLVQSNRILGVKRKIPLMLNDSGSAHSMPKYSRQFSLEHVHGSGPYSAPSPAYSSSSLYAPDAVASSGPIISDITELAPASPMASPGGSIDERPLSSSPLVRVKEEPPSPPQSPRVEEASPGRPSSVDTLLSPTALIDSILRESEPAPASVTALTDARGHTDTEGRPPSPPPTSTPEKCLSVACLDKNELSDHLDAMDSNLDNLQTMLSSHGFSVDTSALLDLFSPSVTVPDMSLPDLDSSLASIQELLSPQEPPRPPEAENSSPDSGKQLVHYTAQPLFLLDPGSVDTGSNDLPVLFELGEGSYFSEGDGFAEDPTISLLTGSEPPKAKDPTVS

Experiment [2] has as its target T1, hemagglutinin-tagged CTCF. The experiment is described as follows: co-IP; HA-CTCF co-purification with WT and R71A HSF1 in transfected HSF1-/- mouse embryonic fibroblasts (Fig. S3B).
Experiment [3] has as its target T1, hemagglutinin-tagged CTCF. The experiment is described as follows: co-IP; HA pull-down on anti-HA magnetic beads from HEK 293T cells transfected with HA-CTCF, control or heat shock (30 min, 42 °C); immunoblot for HSF1. A general note: A western blot detects proteins with antibodies after separation by electrophoresis.
For experiment [4], the target named is heat shock transcription factor 1 (endogenous, HEK 293T) (human (endogenous in HEK 293T)) (UniProt Q00613). The experiment can be described thus: co-IP; endogenous HSF1 immunoprecipitated (anti-HSF1, DynaG beads) from unstressed HEK 293T cells transfected with HA-CTCF; immunoblot for HA-CTCF; IgG control.

No constants are given. Whether binding was seen depends on the method and setting. Binding seen in cells or lysates may run through a third protein. Some entries that bind do so weakly or less than the wild type. Tags and fused reporters may be left off the sequences shown.

As to “WT HSF1 (transfected) (from UniProt Q00613 1-529)”, the binding entry in experiment [1] and in experiment [2] was “binds” each time.
On to “heat shock transcription factor 1 (endogenous, HEK 293T) (from UniProt Q00613 1-529)”, for which the binding result in experiment [3] is listed as “binds”.
Consider HSF1 R71A (from UniProt Q00613 1-529), for which the binding result in experiment [1] and in experiment [2] was “binds” each time.

B1: hemagglutinin-tagged CTCF (protein, UniProt P49711 1-727)
chain: T1 sequence
Take B1: the binding result in experiment [4] is “binds”.

The values are drawn from PMC7948500, “Comparative interactomes of HSF1 in stress and disease reveal a role for CTCF in HSF1-mediated gene regulation” (The Journal of Biological Chemistry, 2020).
